B1: KDM2B (protein, UniProt Q8NHM5 1-1336)
chain: MAGPQMGGSAEDHPPRKRHAAEKQKKKTVIYTKCFEFESATQRPIDRQRYDENEDLSDVEEIVSVRGFSLEEKLRSQLYQGDFVHAMEGKDFNYEYVQREALRVPLIFREKDGLGIKMPDPDFTVRDVKLLVGSRRLVDVMDVNTQKGTEMSMSQFVRYYETPEAQRDKLYNVISLEFSHTKLEHLVKRPTVVDLVDWVDNMWPQHLKEKQTEATNAIAEMKYPKVKKYCLMSVKGCFTDFHIDFGGTSVWYHVFRGGKIFWLIPPTLHNLALYEEWVLSGKQSDIFLGDRVERCQRIELKQGYTFFIPSGWIHAVYTPVDSLVFGGNILHSFNVPMQLRIYEIEDRTRVQPKFRYPFYYEMCWYVLERYVYCVTQRSHLTQEYQRESMLIDAPRKPSIDGFSSDSWLEMEEEACDQQPQEEEEKDEEGEGRDRAPKPPTDGSTSPTSTPSEDQEALGKKPKAPALRFLKRTLSNESEESVKSTTLAVDYPKTPTGSPATEVSAKWTHLTEFELKGLKALVEKLESLPENKKCVPEGIEDPQALLEGVKNVLKEHADDDPSLAITGVPVVTWPKKTPKNRAVGRPKGKLGPASAVKLAANRTTAGARRRRTRCRKCEACLRTECGECHFCKDMKKFGGPGRMKQSCIMRQCIAPVLPHTAVCLVCGEAGKEDTVEEEEGKFNLMLMECSICNEIIHPGCLKIKESEGVVNDELPNCWECPKCNHAGKTGKQKRGPGFKYASNLPGSLLKEQKMNRDNKEGQEPAKRRSECEEAPRRRSDEHSKKVPPDGLLRRKSDDVHLRKKRKYEKPQELSGRKRASSLQTSPGSSSHLSPRPPLGSSLSPWWRSSLTYFQQQLKPGKEDKLFRKKRRSWKNAEDRMALANKPLRRFKQEPEDELPEAPPKTRESDHSRSSSPTAGPSTEGAEGPEEKKKVKMRRKRRLPNKELSRELSKELNHEIQRTENSLANENQQPIKSEPESEGEEPKRPPGICERPHRFSKGLNGTPRELRHQLGPSLRSPPRVISRPPPSVSPPKCIQMERHVIRPPPISPPPDSLPLDDGAAHVMHREVWMAVFSYLSHQDLCVCMRVCRTWNRWCCDKRLWTRIDLNHCKSITPLMLSGIIRRQPVSLDLSWTNISKKQLSWLINRLPGLRDLVLSGCSWIAVSALCSSSCPLLRTLDVQWVEGLKDAQMRDLLSPPTDNRPGQMDNRSKLRNIVELRLAGLDITDASLRLIIRHMPLLSKLHLSYCNHVTDQSINLLTAVGTTTRDSLTEINLSDCNKVTDQCLSFFKRCGNICHIDLRYCKQVTKEGCEQFIAEMSVSVQFGQVEEKLLQKLS
B2: YAF2 (protein, UniProt Q8IY57 1-180)
chain: MGDKKSPTRPKRQPKPSSDEGYWDCSVCTFRNSAEAFKCMMCDVRKGTSTRKPRPVSQLVAQQVTQQFVPPTQSKKEKKDKVEKEKSEKETTSKKNSHKKTRPRLKNVDRSSAQHLEVTVGDLTVIITDFKEKTKSPPASSAASADQHSQSGSSSDNTERGMSRSSSPRGEASSLNGESH
B3: RYBP (protein, UniProt Q8N488 1-228)
chain: MTMGDKKSPTRPKRQAKPAADEGFWDCSVCTFRNSAEAFKCSICDVRKGTSTRKPRINSQLVAQQVAQQYATPPPPKKEKKEKVEKQDKEKPEKDKEISPSVTKKNTNKKTKPKSDILKDPPSEANSIQSANATTKTSETNHTSRPRLKNVDRSTAQQLAVTVGNVTVIITDFKEKTRSSSTSSSTVTSSAGSEQQNQSSSGSESTDKGSSRSSTPKGDMSAVNDESF

Sequences of proteins named here, by UniProt entry; tags and fusion partners are left off.
UniProt Q9P2D1: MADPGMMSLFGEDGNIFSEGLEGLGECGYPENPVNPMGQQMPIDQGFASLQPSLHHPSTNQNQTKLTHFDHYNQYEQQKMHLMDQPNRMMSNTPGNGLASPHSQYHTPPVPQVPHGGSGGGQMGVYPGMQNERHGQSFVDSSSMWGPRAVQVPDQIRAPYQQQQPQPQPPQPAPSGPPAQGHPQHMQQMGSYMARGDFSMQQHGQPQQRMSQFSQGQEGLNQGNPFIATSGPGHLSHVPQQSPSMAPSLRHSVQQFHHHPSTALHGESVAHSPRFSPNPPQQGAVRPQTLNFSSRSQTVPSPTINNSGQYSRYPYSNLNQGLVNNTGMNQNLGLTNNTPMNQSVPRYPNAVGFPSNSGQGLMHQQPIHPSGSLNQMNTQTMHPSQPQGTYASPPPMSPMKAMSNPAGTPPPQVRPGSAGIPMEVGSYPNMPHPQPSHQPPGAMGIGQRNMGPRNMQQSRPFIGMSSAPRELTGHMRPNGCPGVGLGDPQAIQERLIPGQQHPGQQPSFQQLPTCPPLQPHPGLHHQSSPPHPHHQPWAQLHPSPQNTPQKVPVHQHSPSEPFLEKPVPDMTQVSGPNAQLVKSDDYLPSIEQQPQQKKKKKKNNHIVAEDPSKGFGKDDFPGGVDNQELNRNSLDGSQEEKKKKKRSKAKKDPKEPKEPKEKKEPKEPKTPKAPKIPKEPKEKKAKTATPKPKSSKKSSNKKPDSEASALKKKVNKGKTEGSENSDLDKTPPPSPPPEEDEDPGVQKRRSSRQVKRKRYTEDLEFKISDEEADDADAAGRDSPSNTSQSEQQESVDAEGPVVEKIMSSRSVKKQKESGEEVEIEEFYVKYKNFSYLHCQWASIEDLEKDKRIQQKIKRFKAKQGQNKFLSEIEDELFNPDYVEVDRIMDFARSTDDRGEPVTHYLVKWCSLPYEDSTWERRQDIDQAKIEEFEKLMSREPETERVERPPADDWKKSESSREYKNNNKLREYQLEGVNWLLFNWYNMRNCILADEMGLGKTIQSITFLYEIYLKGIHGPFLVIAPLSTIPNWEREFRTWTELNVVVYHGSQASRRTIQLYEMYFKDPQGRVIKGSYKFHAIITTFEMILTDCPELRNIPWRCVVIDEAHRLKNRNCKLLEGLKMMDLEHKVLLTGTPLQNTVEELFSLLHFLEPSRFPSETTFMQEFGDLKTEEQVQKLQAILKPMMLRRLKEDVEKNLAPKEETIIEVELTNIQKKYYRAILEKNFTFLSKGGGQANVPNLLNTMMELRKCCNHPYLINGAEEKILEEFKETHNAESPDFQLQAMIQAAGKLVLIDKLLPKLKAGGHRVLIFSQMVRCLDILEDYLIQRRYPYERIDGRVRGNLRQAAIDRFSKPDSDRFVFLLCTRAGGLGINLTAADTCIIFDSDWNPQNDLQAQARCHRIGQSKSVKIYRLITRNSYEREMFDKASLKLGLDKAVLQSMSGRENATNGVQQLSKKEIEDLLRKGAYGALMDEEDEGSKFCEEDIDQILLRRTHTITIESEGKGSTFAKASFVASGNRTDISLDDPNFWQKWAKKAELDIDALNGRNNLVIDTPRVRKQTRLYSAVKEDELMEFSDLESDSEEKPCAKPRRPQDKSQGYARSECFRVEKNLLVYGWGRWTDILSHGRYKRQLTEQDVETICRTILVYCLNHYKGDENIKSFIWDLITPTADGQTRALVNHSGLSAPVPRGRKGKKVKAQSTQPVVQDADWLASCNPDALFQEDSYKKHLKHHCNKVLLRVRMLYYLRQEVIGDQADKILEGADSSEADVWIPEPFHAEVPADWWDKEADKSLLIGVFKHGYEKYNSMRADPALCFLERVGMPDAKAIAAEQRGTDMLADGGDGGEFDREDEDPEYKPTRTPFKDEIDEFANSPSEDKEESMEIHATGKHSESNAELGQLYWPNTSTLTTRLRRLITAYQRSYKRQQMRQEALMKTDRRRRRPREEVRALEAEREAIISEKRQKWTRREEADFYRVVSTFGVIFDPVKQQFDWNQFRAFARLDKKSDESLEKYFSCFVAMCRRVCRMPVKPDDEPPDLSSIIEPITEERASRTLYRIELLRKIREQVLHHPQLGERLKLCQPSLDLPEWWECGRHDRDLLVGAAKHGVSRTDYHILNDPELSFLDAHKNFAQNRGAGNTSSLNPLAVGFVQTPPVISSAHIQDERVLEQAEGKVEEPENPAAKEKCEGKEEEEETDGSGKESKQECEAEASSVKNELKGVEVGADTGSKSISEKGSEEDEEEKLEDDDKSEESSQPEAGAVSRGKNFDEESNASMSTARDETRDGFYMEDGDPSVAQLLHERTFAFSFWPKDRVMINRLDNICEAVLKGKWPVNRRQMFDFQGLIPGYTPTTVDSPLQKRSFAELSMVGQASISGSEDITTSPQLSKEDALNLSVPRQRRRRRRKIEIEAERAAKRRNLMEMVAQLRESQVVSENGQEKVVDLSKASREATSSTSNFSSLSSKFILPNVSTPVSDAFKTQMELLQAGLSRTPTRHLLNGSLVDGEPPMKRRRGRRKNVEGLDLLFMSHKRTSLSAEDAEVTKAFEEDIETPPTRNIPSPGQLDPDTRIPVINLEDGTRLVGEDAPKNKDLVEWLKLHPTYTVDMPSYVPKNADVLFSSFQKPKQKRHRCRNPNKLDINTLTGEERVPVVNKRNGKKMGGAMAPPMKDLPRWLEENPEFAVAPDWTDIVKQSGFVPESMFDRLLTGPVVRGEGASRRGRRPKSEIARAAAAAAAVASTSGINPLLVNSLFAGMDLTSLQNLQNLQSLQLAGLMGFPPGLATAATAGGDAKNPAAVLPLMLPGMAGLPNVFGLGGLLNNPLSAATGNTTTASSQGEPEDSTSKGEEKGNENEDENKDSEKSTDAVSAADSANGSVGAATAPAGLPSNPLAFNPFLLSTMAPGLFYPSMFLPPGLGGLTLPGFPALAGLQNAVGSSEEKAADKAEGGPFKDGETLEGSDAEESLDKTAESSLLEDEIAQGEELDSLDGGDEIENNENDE
UniProt Q9BSM1: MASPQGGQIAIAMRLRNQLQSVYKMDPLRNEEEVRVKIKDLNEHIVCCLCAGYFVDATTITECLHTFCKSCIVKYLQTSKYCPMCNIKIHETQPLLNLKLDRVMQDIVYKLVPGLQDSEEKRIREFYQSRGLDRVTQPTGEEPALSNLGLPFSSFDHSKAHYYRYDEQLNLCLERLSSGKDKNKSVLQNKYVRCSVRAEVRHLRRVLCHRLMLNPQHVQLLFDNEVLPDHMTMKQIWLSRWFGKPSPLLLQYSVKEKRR
UniProt P63208: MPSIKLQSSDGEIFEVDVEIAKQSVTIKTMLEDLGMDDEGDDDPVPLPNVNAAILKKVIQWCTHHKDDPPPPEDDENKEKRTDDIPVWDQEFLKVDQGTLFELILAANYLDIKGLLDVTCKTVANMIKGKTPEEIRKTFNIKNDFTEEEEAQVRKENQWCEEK
UniProt Q9NQB0: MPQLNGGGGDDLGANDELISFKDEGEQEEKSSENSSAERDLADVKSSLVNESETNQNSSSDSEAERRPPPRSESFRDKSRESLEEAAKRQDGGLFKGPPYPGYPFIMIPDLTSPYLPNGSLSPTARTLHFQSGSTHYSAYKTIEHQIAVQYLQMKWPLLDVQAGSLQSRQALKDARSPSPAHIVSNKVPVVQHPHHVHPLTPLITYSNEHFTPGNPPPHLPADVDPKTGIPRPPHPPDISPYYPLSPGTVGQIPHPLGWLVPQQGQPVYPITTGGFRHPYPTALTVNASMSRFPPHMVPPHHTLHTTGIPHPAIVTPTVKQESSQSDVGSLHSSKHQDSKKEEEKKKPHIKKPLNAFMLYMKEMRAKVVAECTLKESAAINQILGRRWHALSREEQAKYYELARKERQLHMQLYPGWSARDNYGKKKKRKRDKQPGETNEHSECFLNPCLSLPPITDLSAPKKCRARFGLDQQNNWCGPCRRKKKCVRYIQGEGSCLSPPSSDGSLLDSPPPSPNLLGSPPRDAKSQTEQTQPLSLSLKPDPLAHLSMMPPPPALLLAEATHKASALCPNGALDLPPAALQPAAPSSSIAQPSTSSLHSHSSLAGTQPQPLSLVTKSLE
UniProt O75376: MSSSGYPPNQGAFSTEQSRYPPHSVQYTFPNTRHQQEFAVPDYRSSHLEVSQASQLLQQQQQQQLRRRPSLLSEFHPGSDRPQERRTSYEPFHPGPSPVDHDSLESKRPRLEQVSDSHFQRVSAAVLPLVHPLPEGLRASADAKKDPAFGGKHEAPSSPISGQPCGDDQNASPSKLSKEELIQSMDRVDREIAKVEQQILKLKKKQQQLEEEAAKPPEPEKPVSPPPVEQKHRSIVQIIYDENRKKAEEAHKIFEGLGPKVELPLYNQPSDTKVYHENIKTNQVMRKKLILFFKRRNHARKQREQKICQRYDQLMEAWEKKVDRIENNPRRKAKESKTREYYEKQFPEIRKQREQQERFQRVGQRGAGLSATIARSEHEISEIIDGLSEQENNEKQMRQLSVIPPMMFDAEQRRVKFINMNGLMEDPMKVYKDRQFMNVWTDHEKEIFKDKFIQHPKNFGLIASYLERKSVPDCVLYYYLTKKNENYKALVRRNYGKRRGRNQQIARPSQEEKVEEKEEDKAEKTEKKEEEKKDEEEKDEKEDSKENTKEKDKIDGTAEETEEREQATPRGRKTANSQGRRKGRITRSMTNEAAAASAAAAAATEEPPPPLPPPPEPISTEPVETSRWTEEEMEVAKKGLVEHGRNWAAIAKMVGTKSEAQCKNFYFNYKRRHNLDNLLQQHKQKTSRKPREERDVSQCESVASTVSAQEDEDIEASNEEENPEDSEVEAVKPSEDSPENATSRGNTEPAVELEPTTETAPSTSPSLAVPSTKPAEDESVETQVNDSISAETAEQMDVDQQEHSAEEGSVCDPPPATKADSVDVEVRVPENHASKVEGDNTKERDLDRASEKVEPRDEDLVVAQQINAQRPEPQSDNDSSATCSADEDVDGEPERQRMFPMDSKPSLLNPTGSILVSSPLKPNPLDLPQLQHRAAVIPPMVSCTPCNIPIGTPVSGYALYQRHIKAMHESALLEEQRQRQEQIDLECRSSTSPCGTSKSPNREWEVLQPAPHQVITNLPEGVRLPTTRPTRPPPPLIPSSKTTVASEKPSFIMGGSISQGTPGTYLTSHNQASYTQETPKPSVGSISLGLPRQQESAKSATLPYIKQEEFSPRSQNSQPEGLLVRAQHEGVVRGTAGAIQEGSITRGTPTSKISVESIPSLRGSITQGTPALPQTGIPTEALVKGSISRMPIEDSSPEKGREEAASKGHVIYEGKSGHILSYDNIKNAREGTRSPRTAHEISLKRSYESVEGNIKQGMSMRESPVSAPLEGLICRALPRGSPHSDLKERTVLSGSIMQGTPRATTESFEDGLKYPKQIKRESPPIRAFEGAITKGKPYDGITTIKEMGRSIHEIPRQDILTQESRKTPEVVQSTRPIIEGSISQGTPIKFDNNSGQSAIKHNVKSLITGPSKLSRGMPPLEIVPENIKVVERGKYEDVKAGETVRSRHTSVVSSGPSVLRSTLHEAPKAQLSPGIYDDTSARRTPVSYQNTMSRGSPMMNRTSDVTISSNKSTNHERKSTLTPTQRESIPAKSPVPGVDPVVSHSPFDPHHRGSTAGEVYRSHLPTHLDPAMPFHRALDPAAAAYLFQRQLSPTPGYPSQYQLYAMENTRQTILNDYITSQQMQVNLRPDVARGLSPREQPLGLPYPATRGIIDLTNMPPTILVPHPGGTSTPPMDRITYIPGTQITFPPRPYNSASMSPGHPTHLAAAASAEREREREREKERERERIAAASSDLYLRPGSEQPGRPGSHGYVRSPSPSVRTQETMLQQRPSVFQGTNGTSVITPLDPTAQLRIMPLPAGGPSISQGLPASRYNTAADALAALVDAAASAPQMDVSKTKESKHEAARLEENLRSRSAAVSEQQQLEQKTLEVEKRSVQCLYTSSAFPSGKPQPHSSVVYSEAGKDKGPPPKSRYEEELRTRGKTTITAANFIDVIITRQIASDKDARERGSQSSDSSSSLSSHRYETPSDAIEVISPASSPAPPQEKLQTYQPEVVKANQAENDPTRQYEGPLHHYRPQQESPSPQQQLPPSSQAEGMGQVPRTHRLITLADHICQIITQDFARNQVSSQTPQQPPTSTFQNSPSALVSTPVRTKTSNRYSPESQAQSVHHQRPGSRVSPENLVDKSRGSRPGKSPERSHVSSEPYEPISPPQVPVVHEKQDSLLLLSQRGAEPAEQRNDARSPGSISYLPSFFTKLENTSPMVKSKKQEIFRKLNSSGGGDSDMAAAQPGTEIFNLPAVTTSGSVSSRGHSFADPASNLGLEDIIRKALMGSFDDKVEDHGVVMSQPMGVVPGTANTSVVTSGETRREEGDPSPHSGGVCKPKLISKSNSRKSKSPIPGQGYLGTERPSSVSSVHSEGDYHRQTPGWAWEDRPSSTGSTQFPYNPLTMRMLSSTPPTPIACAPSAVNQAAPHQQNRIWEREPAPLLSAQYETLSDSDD

No constants are given. Whether binding was seen depends on the method and setting. In cells and extracts the contact can be indirect. Here binding means that the protein was enriched with, or labelled near, the bait; the list need not be complete. A no says only that the protein was not detected with the bait. Tags and fused reporters may be left off the sequences shown.

This experiment deals with T1, BirA*-FLAG-Tbx2 (UniProt Q60707).
T1 sequence: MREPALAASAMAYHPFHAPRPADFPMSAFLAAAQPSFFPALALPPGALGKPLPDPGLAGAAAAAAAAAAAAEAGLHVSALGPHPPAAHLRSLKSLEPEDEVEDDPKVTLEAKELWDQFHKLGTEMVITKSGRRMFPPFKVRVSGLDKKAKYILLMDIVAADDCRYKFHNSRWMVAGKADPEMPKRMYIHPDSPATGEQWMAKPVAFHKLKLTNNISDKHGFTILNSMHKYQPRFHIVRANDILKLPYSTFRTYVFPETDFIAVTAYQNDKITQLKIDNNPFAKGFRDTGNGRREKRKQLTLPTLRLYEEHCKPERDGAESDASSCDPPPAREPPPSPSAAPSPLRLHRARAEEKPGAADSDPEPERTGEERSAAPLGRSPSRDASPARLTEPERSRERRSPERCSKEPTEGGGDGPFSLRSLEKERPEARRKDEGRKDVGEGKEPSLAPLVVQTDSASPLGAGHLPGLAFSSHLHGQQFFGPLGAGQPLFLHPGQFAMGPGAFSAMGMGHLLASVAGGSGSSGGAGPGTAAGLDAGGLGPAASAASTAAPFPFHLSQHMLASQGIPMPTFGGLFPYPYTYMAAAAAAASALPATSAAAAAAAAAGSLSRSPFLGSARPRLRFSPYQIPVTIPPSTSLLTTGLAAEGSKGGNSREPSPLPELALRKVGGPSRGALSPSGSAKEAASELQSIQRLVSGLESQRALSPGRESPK
The experiment is described as follows: proximity labelling; BioID: BirA*(R118G)-FLAG-Tbx2 stably expressed in Flp-In T-REx HEK293, 1 ug/mL tetracycline and 50 uM biotin for 24 h; RIPA lysis; biotinylated proteins captured on streptavidin-sepharose and identified by mass spectrometry; SAINTexpress, 1% FDR; controls BirA*-FLAG-GFP, BirA*-NLS-FLAG, empty cell line.
As for BCL11A (from UniProt Q9H165 1-835), the binding result is listed as “binds”.

For BCOR (from UniProt Q6W2J9 1-1755), the binding entry is recorded as “binds”.

In the case of BCORL1 (from UniProt Q5H9F3 1-1785), the binding result is “binds”.

Turning to CHD7 (from UniProt Q9P2D1 1-2997), the binding result is “binds”.

Regarding “PCGF1 (endogenous in HEK293) (from UniProt Q9BSM1 1-259)”, the binding entry is given as “binds”.

SKP1 (from UniProt P63208 1-163): the binding entry is on record as “binds”.

Consider “TCF7L2 (TCF4) (from UniProt Q9NQB0 1-619)”, for which the binding result is “binds”.

Regarding TFAP2 (human (endogenous in HEK293)), the binding entry is “binds”.

In the case of TFE3 (from UniProt P19532 1-575), the binding entry is listed as “no binding”.

On to “nuclear receptor corepressor 1 (NCOR1) (from UniProt O75376 1-2440)”, for which the binding entry is “binds”.

B1: the binding result is reported as “binds”.

On to B2, for which the binding result was “no binding”.

Take B3: the binding entry was “no binding”.

These data come from article PMC8653791, “TBX2 controls a proproliferative gene expression program in melanoma”.
